The subject of the experiment is L1210 leukemia ip in BDF1 mice, survival T/C. Nature of the experiment: NCI In Vivo Anticancer Drug Screen. Data for tumor model L1210 Leukemia (intraperitoneal) in B6D2F1 (BDF1) mice. As to conditions: T/C endpoint: mean survival time, higher T/C = longer survival.
[1] abbreviates: dose: 200.0 mg/kg/injection, schedule: Q01DX001 (ip), vehicle: saline.
Setting [2] is: dose: 400.0 mg/kg/injection, schedule: Q01DX001 (ip), vehicle: saline.
Setting [3] is: dose: 200.0 mg/kg/injection, schedule: Q04DX002 (ip), vehicle: Klucel (hydroxypropylcellulose) (HPC).
Where [4] appears, read: dose: 200.0 mg/kg/injection, schedule: Q01DX009 (ip), vehicle: saline with Tween-80.
The mark [5] stands for this setting: dose: 300.0 mg/kg/injection, schedule: Q01DX001 (ip), vehicle: saline.
The mark [6] stands for this setting: dose: 400.0 mg/kg/injection, schedule: Q04DX003 (ip), vehicle: water.
[7] abbreviates: dose: 400.0 mg/kg/injection, schedule: Q01DX009 (ip), vehicle: Klucel (hydroxypropylcellulose) (HPC).
Where [8] appears, read: dose: 100.0 mg/kg/injection, schedule: Q01DX009 (ip), vehicle: Klucel (hydroxypropylcellulose) (HPC).
Setting [9] is: dose: 200.0 mg/kg/injection, schedule: Q01DX009 (ip), vehicle: Klucel (hydroxypropylcellulose) (HPC).

The list is a part of this screen's results and no random one: it is rich in T/C values a quarter to a half above the control, in often repeated tests (any T/C) and in doses without a T/C. Further doses and runs are listed elsewhere. T/C: endpoint of the treated group in % of that of the vehicle group. Some entries give survivors of the animals treated and no T/C: the source files T/C as zero there, which appears to mark a toxic dose or a test without result, not a measured value. Some survivor counts are full or nearly so, which does not show that the dose was tolerated: the source hardly ever lists a survival T/C far under the control, and the zero likely stands for such cases as well. Survivors were counted at the toxicity check, usually on the fifth day, unless a day is given; later deaths do not show. Schedule codes are those of the source, read here as Q, the interval in days (D) or hours (H), X, the number of doses. Some schedule codes hold Z or #, which are not explained here. Some doses were run more than once; the results are listed from low to high. For survival time, this PubChem deposit counts one and a half times the control or more as active, and values a quarter to a half above the control carry no call in these data; other NCI protocols may use other cut-offs. Some T/C values carry the count of animals alive at the toxicity check (mostly the fifth day); where none is given, no animal had died by that day.

Turning to `[O-][n+]1ccnc(C(Cl)(Cl)Cl)c1Cl`, the survivor count (dose: 6.25 mg/kg/injection, schedule: Q01DX009 (ip), vehicle: other) is 2 of 3; the survivor count (dose: 12.5 mg/kg/injection, schedule: Q01DX009 (ip), vehicle: other) is listed as 0 of 3; the survivor count (dose: 25.0 mg/kg/injection, schedule: Q01DX009 (ip), vehicle: other) is 0 of 3; the survivor count (dose: 50.0 mg/kg/injection, schedule: Q01DX009 (ip), vehicle: other) is 0 of 3; the survivor count (dose: 100.0 mg/kg/injection, schedule: Q01DX009 (ip), vehicle: other) is on record as 0 of 3; the survivor count (dose: 200.0 mg/kg/injection, schedule: Q01DX009 (ip), vehicle: other) is given as 0 of 3.
For `CCOC(=O)/C=C(\Nc1ccc(C(c2ccccc2)(c2ccccc2)c2ccccc2)cc1)C(=O)OCC`, the survivor count (dose: 100.0 mg/kg/injection, schedule: Q01DX001 (ip), vehicle: saline) was 6 of 6; the survivor count under setting [1] is 5 of 6; the survivor count under setting [2] is listed as 6 of 6.
As for `C1CCC2[N-]CC3CCCCC3[N-]CC3CCCCC3[N-]CC3CCCCC3[N-]CC2C1.[Cu+2].[O-][Cl+3]([O-])([O-])O` (stereo not given), the survivor count (dose: 100.0 mg/kg/injection, schedule: Q04DX002 (ip), vehicle: Klucel (hydroxypropylcellulose) (HPC)) is given as 0 of 3; the survivor count under setting [3] is 0 of 3; the survivor count (dose: 400.0 mg/kg/injection, schedule: Q04DX002 (ip), vehicle: Klucel (hydroxypropylcellulose) (HPC)) is 0 of 3.
Consider `COc1cc2c(C)cc(=O)oc2cc1O`, for which the survivor count (dose: 200.0 mg/kg/injection, schedule: Q01DX001 (ip), vehicle: carboxymethylcellulose (CMC)) was 4 of 4.
Regarding `COc1ccc(C(O)C2c3c(cc4c(c3OC)OCO4)CCN2C)c(CO)c1OC` (stereo not given), where the note is “dose: 300.0 mg/kg/injection, schedule: Q01DX001 (ip), vehicle: carboxymethylcellulose (CMC)”, the survivor count was 0 of 6.
Regarding `Cc1ncnc2c1CCC2`, the survivor count under setting [4] is 2 of 6 and the survivor count (dose: 400.0 mg/kg/injection, schedule: Q04DX003 (ip), vehicle: saline with Tween-80) is 0 of 6.
Regarding `CCC(C)(C(=O)NO)c1ccccc1` (stereo not given), the survivor count (dose: 400.0 mg/kg/injection, schedule: Q01DX001 (ip), vehicle: saline with Tween-80) was 1 of 6.
For the compound `Cc1cc(Cl)c(N)[c]([Hg][I])c1F`, the survivor count reads like this: (dose: 100.0 mg/kg/injection, schedule: Q01DX001 (ip), vehicle: Klucel (hydroxypropylcellulose) (HPC)) 0 of 6; (dose: 200.0 mg/kg/injection, schedule: Q01DX001 (ip), vehicle: Klucel (hydroxypropylcellulose) (HPC)) 0 of 6; (dose: 400.0 mg/kg/injection, schedule: Q01DX001 (ip), vehicle: Klucel (hydroxypropylcellulose) (HPC)) 0 of 6.
Turning to `C1OC1[C@@H]1CC[C@H]1C1CO1` (stereo not given in full), the T/C was 127 % of control (dose: 115.0 mg/kg/injection, schedule: Q01DX Z (ip), vehicle: carboxymethylcellulose (CMC)); 127 % of control (dose: 172.5 mg/kg/injection, schedule: Q01DX Z (ip), vehicle: carboxymethylcellulose (CMC)); 137 % of control [3 of 4 alive] under setting [1]. The survivor count (dose: 172.5 mg/kg/injection, schedule: Q01DX Z (ip), vehicle: methylcellulose (MC)) was 4 of 4; the survivor count (dose: 250.0 mg/kg/injection, schedule: Q01DX Z (ip), vehicle: carboxymethylcellulose (CMC)) is reported as 4 of 6; the survivor count under setting [5] was 0 of 4; the survivor count under setting [2] was 0 of 4; the survivor count (dose: 500.0 mg/kg/injection, schedule: Q01DX Z (ip), vehicle: carboxymethylcellulose (CMC)) is 0 of 6.
Regarding `CC(=O)/C(C)=C/C=O`, the survivor count by setting is: (dose: 25.0 mg/kg/injection, schedule: Q01DX009 (ip), vehicle: water) 2 of 6; (dose: 25.0 mg/kg/injection, schedule: Q04DX003 (ip), vehicle: water) 0 of 6; (dose: 50.0 mg/kg/injection, schedule: Q04DX003 (ip), vehicle: water) 2 of 6; (dose: 100.0 mg/kg/injection, schedule: Q04DX003 (ip), vehicle: water) 0 of 6; (dose: 200.0 mg/kg/injection, schedule: Q04DX003 (ip), vehicle: water) 0 of 6; under setting [6], 0 of 6.
With `CCOC(=O)/C(C(C)=O)=C(/O)c1ccc(OC(F)(F)C(F)Cl)cc1OC(F)(F)C(F)Cl.CCOC(=O)/C(C(C)=O)=C(/O)c1ccc(OC(F)(F)C(F)Cl)cc1OC(F)(F)C(F)Cl.[Cu]` (stereo not given), under setting [7], the survivor count was 6 of 6.
As to `SC1CC[N-]CC1.SC1CC[N-]CC1.[Cl][Pt+2][Cl]`, under setting [6], the survivor count was 2 of 6.
`CC(C)(C)c1ccc(CN2CCN(C(c3ccccc3)c3ccc(Cl)cc3)CC2)cc1` (stereo not given): the survivor count runs as follows: under setting [8], 4 of 6; under setting [9], 0 of 6; (dose: 400.0 mg/kg/injection, schedule: Q04DX003 (ip), vehicle: Klucel (hydroxypropylcellulose) (HPC)) 1 of 4.
Take `COc1ccc(Cl)cc1C/C=N/NC(=O)C[N+](C)(C)C`: the survivor count was 0 of 6 (dose: 150.0 mg/kg/injection, schedule: Q01DX001 (ip), vehicle: saline) and 0 of 6 under setting [5].
On to `CCNC(c1ccccc1)C(O)c1ccccc1` (stereo not given), for which the survivor count is reported as 2 of 3 under setting [3] and 0 of 6 under setting [7].
Regarding `COC(=O)c1cn(C2OC(CO)C(O)C2O)c2ncnc(N)c12` (stereo not given), the survivor count (dose: 80.0 mg/kg/injection, schedule: Q01DX001 (ip), vehicle: water) is 6 of 6.
Take `O=CC(=O)c1ccccc1`: the survivor count (dose: 12.5 mg/kg/injection, schedule: Q01DX009 (ip), vehicle: saline) is given as 6 of 6; the survivor count under setting [8] was 2 of 6; the survivor count under setting [9] is recorded as 0 of 6; the survivor count under setting [4] is reported as 0 of 6; the survivor count under setting [7] is listed as 0 of 6; the survivor count (dose: 400.0 mg/kg/injection, schedule: Q01DX009 (ip), vehicle: saline with Tween-80) is reported as 0 of 6.
In the case of `NC(=O)c1ccccc1OC(=O)Nc1ccc(F)cc1`, the survivor count reads like this: (dose: 200.0 mg/kg/injection, schedule: Q01DX009 (ip), vehicle: carboxymethylcellulose (CMC)) 1 of 3 and 3 of 6; (dose: 200.0 mg/kg/injection, schedule: Q04DX002 (ip), vehicle: carboxymethylcellulose (CMC)) 3 of 3; (dose: 400.0 mg/kg/injection, schedule: Q04DX002 (ip), vehicle: carboxymethylcellulose (CMC)) 3 of 3.
For `CCC(=O)c1ccc(NC(=S)Nc2ccccc2)cc1`, under “dose: 160.0 mg/kg/injection, schedule: Q01DX009 (ip), vehicle: saline with Tween-80”, the survivor count is 6 of 6.
As to `Nc1cccc2cccc([N+](=O)[O-])c12`, the survivor count (dose: 400.0 mg/kg/injection, schedule: Q01DX009 (ip), vehicle: saline) was 3 of 6.

The values above are taken from PubChem BioAssay AID248 (DTP/NCI, 2004).
